# Assay results reported in PubChem BioAssay AID1259415 (National Center for Advancing Translational Sciences (NCATS), 2018).
# Hit rate of the full screen: of about 410,000 compounds, about 18,000 (4.4%) were called active. This list was built around the results that the source calls inconclusive (neither active nor inactive); the mix of calls is not that of the screen. Rule as the data show it: active = activity change below about -60%; inconclusive = no clear call, values can overlap the other calls; inactive = above about -39%.
# Assay: qHTS Assay for inhibitors of the human cytomegalovirus (HCMV)
# Conditions: HFF cells, HCMV-luciferase reporter, 72 h; at 57.5 µM; active compounds read low
# Outline: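 Two-dose cell screen: HFF monolayers treated with compounds and infected with luciferase-expressing HCMV at 1 PFU/cell, 72 h at 37C, then lysed for luciferase measurement.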
# % is scaled to controls: 0 for no effect and ±100 for the full control effect.
row,SMILES,"activity change, negative = inhibition"
1,O=[N+]([O-])c1ccc(N/N=C/c2ccc[nH]2)cc1,inconclusive: -56.1%
2,CSc1ccc(/C=C(\C#N)C(=O)NC2CCCCC2C)cc1 (centres undefined),inconclusive: -43%
3,COc1ccc(NC(=S)N(CCN(C)C)C(C)c2ccco2)cc1Cl (centres undefined),inconclusive: -54.4%
4,CC(=O)c1cccc(N(C(=O)c2ccccn2)C(C(=O)NC2CCCCC2)c2cccs2)c1 (centres undefined),inconclusive: -40.2%
5,CCC(C)c1ccccc1OCCCNC1CCCC1 (centres undefined),inconclusive: -55.9%
6,O=C(NC1CCN(Cc2ccccc2)CC1)c1cccc(S(=O)(=O)Nc2ccc(Br)cc2)c1,active: -68.6%
7,CCNC(=S)NS(=O)(=O)c1ccc(CC)cc1,active: -94.6%
8,NC(=O)C1CCN(CC(=O)Nc2ccccc2Sc2ccccc2)CC1,inactive: 24.4%
9,O=C1[C@H]2[C@@H](c3ccc(F)cc3)N3C(=O)N(c4cccc(F)c4)C(=O)[C@@]3(Cc3ccccc3)[C@H]2C(=O)N1C1CCCCC1,inactive: 1.25%
10,COc1ccc(C2CC(c3ccccc3)=NN2c2ccc(S(N)(=O)=O)cc2)cc1 (centres undefined),inactive: -0.515%
11,Cc1sc(NC(=O)CN(Cc2ccccc2)C(=O)C2CC2)c(C(N)=O)c1C,inconclusive: -50.6%
12,C=CCN(c1ccccc1)S(=O)(=O)c1cccc(C(=O)NCc2ccco2)c1,inconclusive: -41.9%
13,COc1ccc(-n2nc(C(=O)Nc3cc(OC)c(OC)c(OC)c3)c(=O)n(C)c2=O)cc1,inactive: 43.1%
14,CC1=C(c2ccc(C)cc2)S(=O)(=O)NC1=NCCCN1CCN(c2ccccc2F)CC1,inconclusive: 0%
15,CCc1nn(CC(=O)NCc2cccnc2)c(=O)c2cc3occc3n12,inactive: -24.1%
16,CC(=O)N(C)c1ccc(NC(=S)Nc2ccc(C(C)C)cc2)cc1,inconclusive: -42.1%
17,Cc1cc(Cl)c(S(=O)(=O)N2CCCCCC2)cc1OCC(=O)NC1CCCCC1,inconclusive: -51.2%
18,O=C(Nc1ccc(O)cc1)c1cc2ccccc2c(=O)s1,active: -70.5%
19,N#Cc1ccc(NC(=S)Nc2ccccc2)cc1,inconclusive: -51.8%
20,CCOC(=O)CC1=NN(c2ccccc2)C(=O)C1,inconclusive: -46%
21,CCC(C)NS(=O)(=O)c1ccc(S(=O)(=O)N2CC=C(c3ccc(F)cc3)CC2)cc1 (centres undefined),active: -72.8%
22,CCNC(=O)c1ccccc1CCc1ccccc1,inconclusive: -46.9%
23,O=C(Nc1ccc(N2CCOCC2)cc1)Nc1ccc2nc(-c3ccco3)c(-c3ccco3)nc2c1,active: -60.4%
24,COc1ccc(Oc2c(C(F)(F)F)oc3c(CN4CCCC(C)C4)c(O)ccc3c2=O)cc1 (centres undefined),active: -61%

# Exported tab-delimited: entries from further up.
row	SMILES	activity change, negative = inhibition
20	CCOC(=O)CC1=NN(c2ccccc2)C(=O)C1	inconclusive: -46%
21	CCC(C)NS(=O)(=O)c1ccc(S(=O)(=O)N2CC=C(c3ccc(F)cc3)CC2)cc1 (centres undefined)	active: -72.8%
